SMILES strings stand for the structures. Several values for one entry are separate records, joined by “and”; a condition that tells them apart may be missing. Identical values can stand only once. This is one part of the list. Each value is one well over the wells without odorant, computed here; the data are noisy.

For ten molecules, odorant receptor activation results are on record in the odorant receptor screen of Mainland et al. (2015).

Among the test systems are OR2J2 clone 1403; OR2J2 clone 1404; OR2K2 clone 1340; OR2K2 clone 1450; OR2L13 clone 1481; OR2L3 clone 1526; OR2L5 clone 1697; OR2L2 clone 1465.
Holding throughout (assay): odorant receptor activation (CRE luciferase / Renilla) (fold of no-odor wells); higher = more activation
Conditions in all cases: 100 µM

Assay [1] has as its system OR2J2 Y74H/T111A/V146A/T218A clone 1402.
The subject of assay [2] is OR2J3 I228V/M261I clone 1616.

Consider `CC=Cc1ccc(O)c(OC)c1` [isoeugenol], for which the odorant receptor activation in assay [1] is 1.28; in the assay with OR2J2 clone 1403, 1.35; in the assay on OR2J2 clone 1404 it was 1.74; in assay [2] it was 2.11; in the assay with OR2K2 clone 1340 it was 2.14 and 1.8; in the assay with OR2K2 clone 1450 it was 1.37. Besides, the odorant receptor activation with OR2L13 clone 1481 was 1.09 and 2.12; in the assay with OR2L3 clone 1526, 1.61 and 1.79; with OR2L5 clone 1697, 3.04.

As for `CCCCCCCCCC=O` [decyl aldehyde], the odorant receptor activation in assay [1] was found to be 1.32; in the assay on OR2J2 clone 1403, 1.58; in the assay on OR2J2 clone 1404, 1.76; in assay [2] it was 3.47; in the assay with OR2K2 clone 1340, 1.24; with OR2K2 clone 1450 it was 1.5. Further, the odorant receptor activation in the assay with OR2L13 clone 1481 amounted to 1.57; in the assay on OR2L2 clone 1465, 0.986; in the assay with OR2L3 clone 1526 it was 1.01; in the assay on OR2L5 clone 1697, 0.825.

As for `CC(=O)C(C)=O` [diacetyl], the odorant receptor activation in assay [1] worked out at 1.26; with OR2J2 clone 1403, 1.06; in the assay with OR2J2 clone 1404, 1.41; in assay [2], 1.51; in the assay on OR2K2 clone 1340, 0.909; in the assay with OR2K2 clone 1450, 1.29. Also, the odorant receptor activation was 1.33 with OR2L13 clone 1481, 1.45 in the assay on OR2L2 clone 1465, 1.18 with OR2L3 clone 1526 and 0.782 with OR2L5 clone 1697.

As for `COc1cc(C)ccc1O` [2-methoxy-4-methylphenol], the odorant receptor activation stood at 0.979 in [1]; 0.591 with OR2J2 clone 1403; 3.93 in the assay with OR2J2 clone 1404; 1.38 in [2]; 0.877 in the assay on OR2K2 clone 1340; 0.99 with OR2K2 clone 1450. Moreover, the odorant receptor activation in the assay on OR2L13 clone 1481 came out at 0.899; in the assay on OR2L2 clone 1465 it was 0.893; with OR2L3 clone 1526 it was 1; with OR2L5 clone 1697, 0.87.

As for `CC(C)CCC(=O)O` [4-methylvaleric acid], the odorant receptor activation is 2 in assay [1]; 0.84 with OR2J2 clone 1403; 1.49 in the assay on OR2J2 clone 1404; 1.04 in assay [2]; 0.781 in the assay with OR2K2 clone 1340; 1.01 in the assay with OR2K2 clone 1450. The odorant receptor activation was 0.976 in the assay with OR2L13 clone 1481, 0.959 in the assay on OR2L2 clone 1465, 1.15 in the assay on OR2L3 clone 1526 and 0.733 in the assay on OR2L5 clone 1697.

Consider `CC1CCC(C(C)C)C(O)C1` (single isomer, unassigned; (+)) [(+)-menthol], for which the odorant receptor activation in [1] was 0.591; with OR2J2 clone 1403, 0.492; in the assay with OR2J2 clone 1404 it was 1.13; in assay [2], 1.61; in the assay with OR2K2 clone 1340, 0.266; with OR2K2 clone 1450, 0.935. Moreover, the odorant receptor activation with OR2L13 clone 1481 stood at 1.17; in the assay on OR2L2 clone 1465, 0.989; in the assay on OR2L3 clone 1526 it was 1.21; with OR2L5 clone 1697 it was 0.658.

`CC12C=CCC1C1CCC3CC(=O)CCC3(C)C1CC2` (stereo not given) [androstenone]: the odorant receptor activation in [1] was 0.888; with OR2J2 clone 1403, 0.678; in the assay on OR2J2 clone 1404 it was 1.32; in the assay on OR2K2 clone 1340 it was 1.08; in the assay on OR2K2 clone 1450 it was 0.652; in the assay on OR2L13 clone 1481 it was 0.99. The results for the odorant receptor activation with OR2L2 clone 1465 and with OR2L3 clone 1526 were 0.994 and 1.2, respectively.

As for `CCCCCC(=O)O` [caproic acid], the odorant receptor activation came to 0.267 in assay [1]; 0.305 with OR2J2 clone 1403; 0.336 with OR2J2 clone 1404; 0.907 in [2]; 0.851 in the assay on OR2K2 clone 1340; 0.16 in the assay with OR2K2 clone 1450. In addition, the odorant receptor activation in the assay on OR2L13 clone 1481 was determined as 0.835; in the assay on OR2L2 clone 1465, 0.933; with OR2L3 clone 1526, 0.883; in the assay on OR2L5 clone 1697, 0.871.

Regarding `CC1=CCC(C(C)(C)O)CC1` (stereo not given) [terpineol], the odorant receptor activation in [1] stood at 0.985; in the assay on OR2J2 clone 1403 it was 1.08; in the assay on OR2J2 clone 1404 it was 1.41; in [2], 1.81; in the assay on OR2K2 clone 1340 it was 0.744; in the assay on OR2K2 clone 1450, 0.849. The odorant receptor activation in the assay on OR2L13 clone 1481 worked out at 0.854; in the assay on OR2L2 clone 1465, 0.854; with OR2L3 clone 1526 it was 0.898; with OR2L5 clone 1697 it was 1.05.

`CC1COCc2cc3c(cc21)C(C)(C)C(C)C3(C)C` (stereo not given) [galaxolide]: the odorant receptor activation was 2.33 in assay [1]; 2.28 in the assay on OR2J2 clone 1403; 2.03 with OR2J2 clone 1404; 4.25 and 5.64 in the assay with OR2K2 clone 1340; 2.44 with OR2K2 clone 1450; 1.21 and 3.19 in the assay on OR2L13 clone 1481. Moreover, the odorant receptor activation with OR2L3 clone 1526 was 7.34 and 4.56; in the assay with OR2L5 clone 1697 it was 3.52 and 1.41.
